From paper doi:10.1101/2022.01.27.22269972
These are yes or no findings as the source states them, for the method shown. In cells and extracts the contact can be indirect. These calls come from enrichment with a bait or labelling near it, and not all partners need be listed. For some assays here: No binding means not detected with the bait. Tags and fused reporters may be left off the sequences shown.

Amino acid sequences for entries named in this document (tags omitted). Residues count along the entry.
UniProt P00367, residues 54-558: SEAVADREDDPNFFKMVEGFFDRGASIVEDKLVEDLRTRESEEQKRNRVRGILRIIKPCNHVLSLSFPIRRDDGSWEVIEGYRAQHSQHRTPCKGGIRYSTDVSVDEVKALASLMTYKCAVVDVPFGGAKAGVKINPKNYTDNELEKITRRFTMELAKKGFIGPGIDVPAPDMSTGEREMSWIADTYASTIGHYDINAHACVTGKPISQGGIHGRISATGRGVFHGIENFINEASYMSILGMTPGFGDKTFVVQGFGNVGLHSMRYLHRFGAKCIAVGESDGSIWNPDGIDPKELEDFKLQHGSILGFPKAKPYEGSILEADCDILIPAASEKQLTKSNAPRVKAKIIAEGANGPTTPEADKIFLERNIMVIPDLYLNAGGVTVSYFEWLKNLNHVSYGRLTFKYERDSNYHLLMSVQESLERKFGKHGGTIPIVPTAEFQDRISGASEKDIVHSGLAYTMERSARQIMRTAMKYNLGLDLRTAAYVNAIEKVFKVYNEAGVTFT

T1: MCEE, C-terminally flag-tagged (UniProt Q96PE7)
T1 sequence: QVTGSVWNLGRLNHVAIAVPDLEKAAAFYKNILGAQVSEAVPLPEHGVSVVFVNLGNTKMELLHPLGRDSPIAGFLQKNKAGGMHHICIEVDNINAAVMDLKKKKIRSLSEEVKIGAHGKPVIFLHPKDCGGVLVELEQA

T2: MMAB, C-terminally flag-tagged (human) (UniProt Q96EY8)
T2 sequence: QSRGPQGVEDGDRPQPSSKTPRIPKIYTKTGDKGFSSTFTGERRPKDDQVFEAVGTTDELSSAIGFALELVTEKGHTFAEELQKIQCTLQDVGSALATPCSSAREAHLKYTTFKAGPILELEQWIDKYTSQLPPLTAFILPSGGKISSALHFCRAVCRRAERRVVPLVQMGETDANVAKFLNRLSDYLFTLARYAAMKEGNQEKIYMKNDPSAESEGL

T3: VLCAD, C-terminally flag-tagged (UniProt P49748)
T3 sequence: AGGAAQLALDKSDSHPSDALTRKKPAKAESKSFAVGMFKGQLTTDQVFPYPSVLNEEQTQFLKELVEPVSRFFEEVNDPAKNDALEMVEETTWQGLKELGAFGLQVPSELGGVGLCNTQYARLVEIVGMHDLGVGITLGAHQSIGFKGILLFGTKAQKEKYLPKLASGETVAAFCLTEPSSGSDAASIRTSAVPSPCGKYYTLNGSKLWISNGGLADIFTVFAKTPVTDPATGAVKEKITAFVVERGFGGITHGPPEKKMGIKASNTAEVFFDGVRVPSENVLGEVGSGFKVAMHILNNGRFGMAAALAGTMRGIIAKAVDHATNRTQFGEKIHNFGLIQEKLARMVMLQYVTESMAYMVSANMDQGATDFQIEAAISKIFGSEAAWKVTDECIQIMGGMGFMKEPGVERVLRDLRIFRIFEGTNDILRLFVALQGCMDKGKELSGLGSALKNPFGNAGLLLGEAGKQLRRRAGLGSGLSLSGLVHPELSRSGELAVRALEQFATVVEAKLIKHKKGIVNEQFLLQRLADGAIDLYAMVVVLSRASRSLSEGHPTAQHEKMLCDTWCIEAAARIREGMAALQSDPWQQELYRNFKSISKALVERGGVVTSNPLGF

T4: methylmalonyl-CoA mutase (MMUT), C-terminally flag-tagged (human) (UniProt P22033)
T4 sequence: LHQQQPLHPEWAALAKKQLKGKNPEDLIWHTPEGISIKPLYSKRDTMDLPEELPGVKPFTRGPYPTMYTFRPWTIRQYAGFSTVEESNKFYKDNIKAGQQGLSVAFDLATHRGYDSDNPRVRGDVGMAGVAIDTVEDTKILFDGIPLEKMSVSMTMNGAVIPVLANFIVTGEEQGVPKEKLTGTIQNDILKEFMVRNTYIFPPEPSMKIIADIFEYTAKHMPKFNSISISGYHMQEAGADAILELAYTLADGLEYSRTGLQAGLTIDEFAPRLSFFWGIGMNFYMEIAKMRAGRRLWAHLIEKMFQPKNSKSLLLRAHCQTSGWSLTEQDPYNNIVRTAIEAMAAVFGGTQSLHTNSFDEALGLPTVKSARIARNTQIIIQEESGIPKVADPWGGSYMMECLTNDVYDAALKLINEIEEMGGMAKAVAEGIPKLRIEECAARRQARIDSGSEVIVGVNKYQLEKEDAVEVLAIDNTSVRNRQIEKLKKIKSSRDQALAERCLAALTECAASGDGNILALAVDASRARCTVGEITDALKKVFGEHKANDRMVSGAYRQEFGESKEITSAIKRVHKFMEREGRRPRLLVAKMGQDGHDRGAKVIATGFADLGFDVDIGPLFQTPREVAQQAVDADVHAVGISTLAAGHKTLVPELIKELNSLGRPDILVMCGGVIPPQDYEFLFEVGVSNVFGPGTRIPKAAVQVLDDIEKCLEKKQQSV

B1: GOT2 (enzyme, UniProt P00505 30-430)
chain: SSWWTHVEMGPPDPILGVTEAFKRDTNSKKMNLGVGAYRDDNGKPYVLPSVRKAEAQIAAKNLDKEYLPIGGLAEFCKASAELALGENSEVLKSGRFVTVQTISGTGALRIGASFLQRFFKFSRDVFLPKPTWGNHTPIFRDAGMQLQGYRYYDPKTCGFDFTGAVEDISKIPEQSVLLLHACAHNPTGVDPRPEQWKEIATVVKKRNLFAFFDMAYQGFASGDGDKDAWAVRHFIEQGINVCLCQSYAKNMGLYGERVGAFTMVCKDADEAKRVESQLKILIRPMYSNPPLNGARIAAAILNTPDLRKQWLQEVKVMADRIIGMRTQLVSNLKKEGSTHNWQHITDQIGMFCFTGLKPEQVERLIKEFSIYMTKDGRISVAGVTSSNVGYLAHAIHQVTK

How the values were obtained:
Assay in all cases: affinity purification with mass spectrometry
[1] = biological target: T1, MCEE, C-terminally flag-tagged
[2] = biological target: T2, MMAB, C-terminally flag-tagged (human)
[3] = biological target: T3, VLCAD, C-terminally flag-tagged
[4] = biological target: T4, methylmalonyl-CoA mutase (MMUT), C-terminally flag-tagged (human)

Molecule | binding [1] | binding [2] | binding [3] | binding [4]
glutamate dehydrogenase (GLUD1) (from UniProt P00367 54-558) (enzyme) | binds | binds | no binding | binds
B1 | binds | binds | no binding | binds
